# Measurements: PMC7819943, “Rice protein-binding microarrays: a tool to detect cis-acting elements near promoter regions in rice”
# This is one part of the list.
# Molecular target: T1, OsSMF1 (Oryza sativa, UniProt Q6ZLB0 1-436)
# T1 sequence: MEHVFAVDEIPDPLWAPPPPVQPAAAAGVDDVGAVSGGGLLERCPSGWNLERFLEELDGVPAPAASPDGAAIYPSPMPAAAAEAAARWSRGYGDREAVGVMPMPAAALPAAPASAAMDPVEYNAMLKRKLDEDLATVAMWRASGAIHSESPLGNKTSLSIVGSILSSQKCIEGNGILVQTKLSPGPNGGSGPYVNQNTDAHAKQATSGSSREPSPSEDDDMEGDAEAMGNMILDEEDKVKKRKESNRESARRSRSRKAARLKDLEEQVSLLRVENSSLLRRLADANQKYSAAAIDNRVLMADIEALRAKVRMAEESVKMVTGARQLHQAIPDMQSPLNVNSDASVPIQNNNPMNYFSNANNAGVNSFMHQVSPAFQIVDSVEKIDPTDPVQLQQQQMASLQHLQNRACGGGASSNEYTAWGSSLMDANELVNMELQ
# Assay: protein-binding microarray (RPBM); PBS, 2% BSA, 51.3 ng/ul salmon testes DNA, 50 uM zinc acetate, 200 nM TF, 25 C, 1 h; high values mean tight binding
# Conditions: protein: recombinant; tags: N-terminal polyhistidine and DsRed monomer fusion (pET32a); chain copies: 2; label: CyDye5-dUTP incorporated in the synthesized complementary strand; 3' TTTTT single-stranded linker to array surface; dsDNA, one strand shown
# Outline: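 Transcription factors were each fused at the N-terminus to a polyhistidine tag plus DsRed and expressed in E. coli BL21-CodonPlus before Ni–NTA purification. Binding to a double-stranded custom Agilent array was carried out with 200 nM protein at 25 °C for 1 h in PBS, 2% BSA, salmon testes DNA and 50 µM zinc acetate. The binding signal is per-feature fluorescence intensity, in arbitrary units, on an Axon 4000B scanner.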
row,Sequence,binding signal
1,AGAAGAAGAAGAAGAGGAAAGCCATCGTCATCATCGTGTCCGGAGTCACCTAGTGCAG,6020 fluorescence intensity (a.u.)
2,ATATTATTGATGATGTGGAGAAGTTAAAGGAGCATGCACACGGAGTCACCTAGTGCAG,6090 fluorescence intensity (a.u.)
3,GACGTCGTCCTTCCTGCCGTGCGCGTGTCAGAGGAGCAGCCGGAGTCACCTAGTGCAG,3140 fluorescence intensity (a.u.)
4,CTTGACAGTTATTTTGACACGTCCTGGTGGTGCGTTTTAACGGAGTCACCTAGTGCAG,3820 fluorescence intensity (a.u.)
5,TCCCCATCTCCCTTCATCTCCCTCCCATCTCCTCTCTCCGCGGAGTCACCTAGTGCAG,29300 fluorescence intensity (a.u.)
6,AAACGGCGGACGCGTGGCGTGCGGCACGCTCCACCGACCTCGGAGTCACCTAGTGCAG,4260 fluorescence intensity (a.u.)
7,CAAATCCCACCTGTCCAACCAAGGACCAACCAACCCCGCGCGGAGTCACCTAGTGCAG,5060 fluorescence intensity (a.u.)
8,CTGCTGCTGATCTGTTGCATTTGCCCTGTTCTTGGCGCTCCGGAGTCACCTAGTGCAG,3520 fluorescence intensity (a.u.)
9,TCCCAGGGCCCATCAATTAGTAGTGAAACAAATCCGGTGGCGGAGTCACCTAGTGCAG,3230 fluorescence intensity (a.u.)
10,ATCGCGCGTCGTCTCCACCTTTCTTGCTTGTGCCACCAAGCGGAGTCACCTAGTGCAG,3420 fluorescence intensity (a.u.)
11,CCCACCACCTCGTCCTCACCGTCATCGCTGGCGCTGCCTGCGGAGTCACCTAGTGCAG,4710 fluorescence intensity (a.u.)
12,CCGCCTTGCGTGGCTGAACTTCTTCTGATGGTCCCCGCCTCGGAGTCACCTAGTGCAG,3290 fluorescence intensity (a.u.)
13,CCGCGCCTCCGCCTCCTCCGCGTCCCCGCGCCTCTCCTTCCGGAGTCACCTAGTGCAG,3180 fluorescence intensity (a.u.)
14,TCAAAATCGAACCAGTGTTGCGTCATACGAGTGTCGTTTACGGAGTCACCTAGTGCAG,4960 fluorescence intensity (a.u.)
15,CGTTAATTTTCGCGAACTGCTAAACAATGTTTCATACAAACGGAGTCACCTAGTGCAG,3200 fluorescence intensity (a.u.)
16,GCGCGCCACGCCACGCCACGCGCCCACGCCTCGCCTCGCCCGGAGTCACCTAGTGCAG,10000 fluorescence intensity (a.u.)
17,CCCTTGCAAGAGCTCTCACACCCTTGTGCATTTAGTTTATCGGAGTCACCTAGTGCAG,3680 fluorescence intensity (a.u.)
18,AGAAACAAGCATATGCATCATCCATCTCCTTATCGCGACCCGGAGTCACCTAGTGCAG,3310 fluorescence intensity (a.u.)
19,TTTCTTAATGTGATGTATGACGTAAACCATCACCCTTGTTCGGAGTCACCTAGTGCAG,6400 fluorescence intensity (a.u.)
20,GAACCGTGCCGTCCTGCCGTGAATCAGAACTTTTCCTAGTCGGAGTCACCTAGTGCAG,3280 fluorescence intensity (a.u.)
21,TTGAAGCCCACCACACCACCTCACCTCGCCGCCGCCGCCACGGAGTCACCTAGTGCAG,4260 fluorescence intensity (a.u.)

# A different layout for some results above.
row	Sequence	binding signal
4	CTTGACAGTTATTTTGACACGTCCTGGTGGTGCGTTTTAACGGAGTCACCTAGTGCAG	3820 fluorescence intensity (a.u.)
7	CAAATCCCACCTGTCCAACCAAGGACCAACCAACCCCGCGCGGAGTCACCTAGTGCAG	5060 fluorescence intensity (a.u.)
13	CCGCGCCTCCGCCTCCTCCGCGTCCCCGCGCCTCTCCTTCCGGAGTCACCTAGTGCAG	3180 fluorescence intensity (a.u.)

# The list continues:

row,Sequence,binding signal
1,AGCAGATCCGAGTTGGCATCGATGAGGTGGCATCAGTGGTCGGAGTCACCTAGTGCAG,12000 fluorescence intensity (a.u.)
2,AATCTTCTTGCAGTTCCACGAACTAGGAATACACGCGTCGCGGAGTCACCTAGTGCAG,3680 fluorescence intensity (a.u.)
3,TGTTTACTGTAGCGTCACATAGTCTAGTCATAGATTCGTCCGGAGTCACCTAGTGCAG,5460 fluorescence intensity (a.u.)
4,TAGCGTATTATCAAGGGTGGCAACTGGCCATGCAGTGAATCGGAGTCACCTAGTGCAG,3190 fluorescence intensity (a.u.)
5,TCTAGATGCACTCATAGCATGACACATCAATTAGTAAGAACGGAGTCACCTAGTGCAG,3820 fluorescence intensity (a.u.)
6,TCGTCGTCGTCGTCGTCGTCGTCGTCGTCCTCTTGTGATCCGGAGTCACCTAGTGCAG,3410 fluorescence intensity (a.u.)
7,GTGTGTGTGCGAGTGAGTGTTTGGGCTGACAAGTGGTATCCGGAGTCACCTAGTGCAG,3890 fluorescence intensity (a.u.)
8,TTTATCTTTCTTTGTTTGTCCCTTGCATCATTACTCATATCGGAGTCACCTAGTGCAG,3320 fluorescence intensity (a.u.)
9,GCAAAATTTGACATGTAAGCTGCTAGGACTAGTAGTAATGCGGAGTCACCTAGTGCAG,3780 fluorescence intensity (a.u.)
10,ACACCTGCTCGGTCATCCACGAGCACTATGACTGTATGAACGGAGTCACCTAGTGCAG,6010 fluorescence intensity (a.u.)
11,GCCATCCTCACGCACACGCCACGTGCTCGACGAAATGCCGCGGAGTCACCTAGTGCAG,4190 fluorescence intensity (a.u.)
12,CTCGCATGCCAAGTGTGCGCCGCCCGCCGCGCCGCGCCGCCGGAGTCACCTAGTGCAG,3180 fluorescence intensity (a.u.)
13,TCCTTCCACCACCACCTCCTTCTTTAGGAGTAGCAGCAGCCGGAGTCACCTAGTGCAG,26500 fluorescence intensity (a.u.)
14,ATCGGGGACACGCGTACGGCGGAAGATCCCGTGGCATTTCCGGAGTCACCTAGTGCAG,4990 fluorescence intensity (a.u.)
15,CGGGCACTCTCGTCTCCGACGTGAAGGCCCGAGATCACTGCGGAGTCACCTAGTGCAG,60900 fluorescence intensity (a.u.)
16,GCGAGCGCCACGCACCCCGGACCCGGTCACGGCACGGCCCCGGAGTCACCTAGTGCAG,4260 fluorescence intensity (a.u.)
17,TAGCCAACCAGGTCATCTTCTCTCCTTCCCCGGCAGTTATCGGAGTCACCTAGTGCAG,4100 fluorescence intensity (a.u.)
18,TACGTAAGATAGCTAGATGATTATGTCTTTCCGTATTGTTCGGAGTCACCTAGTGCAG,5220 fluorescence intensity (a.u.)
19,TGCCAAATGGCATATCGATAATGACATGGCTCGAATTAACCGGAGTCACCTAGTGCAG,3900 fluorescence intensity (a.u.)
20,ACTGATGCCACCTTACCCATGTCCACGCCTTCCAGTGTTGCGGAGTCACCTAGTGCAG,4950 fluorescence intensity (a.u.)
21,TAATATATGTTGAGTTAATGCCATGTCACGCTTGCTCTATCGGAGTCACCTAGTGCAG,13000 fluorescence intensity (a.u.)
